Data: PubChem BioAssay AID504467 (National Center for Advancing Translational Sciences (NCATS), 2011)
In all, about 330,000 compounds went through this assay and about 7,700 (2.3%) were called active. Inconclusive results, whose numbers are uncertain, are shown with a selection of clear calls. Calls follow the shape of the dose curve; as a rule, active = well fitted inhibition curve with a large enough effect; inconclusive = small, poorly fitted or top-dose-only effect, or effect the other way; inactive = flat fitted curve, though single readings scatter. Potencies of inconclusive entries are doubtful fits and often do not repeat.
Potency is read from the fitted curve at half-maximal effect.

Test: qHTS screen for small molecules that inhibit ELG1-dependent DNA repair in human embryonic kidney (HEK293T) cells expressing luciferase-tagged ELG1; also: nearly all actives have a fitted effect of over 55% in size
Conditions: HEK293T ELG1-luciferase reporter, luminescence, 16 h, DNA damage induced by 5-fluorouridine; series mostly up to 46.1 µM
Method in brief: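 In this reporter screen, reduction of luminescence relative to DMSO vehicle indicated activity. Compounds and 5-fluorouridine were added together to 2,000 cells per well, incubated for 16 hr at 37 °C, then developed with ONE-Glo.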
In the case of `Cc1ccc2c(c1)c1n[nH]c(=S)nc1n2CCc1ccccc1`, the Potency is reported as inconclusive: 7.3 µM [inhibitor, partial curve, poor fit].
With `O=C1CCCc2nn(-c3ccccc3)nc21` the Potency was inconclusive: 16.4 µM [activator, partial curve].
For `CCCC(=O)N1c2ccccc2C(=C2SC(C(=O)OC)=C(C(=O)OC)S2)C(=S)C1(C)C`, the Potency was inconclusive: 23.1 µM [inhibitor, partial curve, poor fit].
In the case of `C=CCN(c1ccccc1)S(=O)(=O)c1cccc(C(=O)Nc2nc3ccccc3[nH]2)c1`, the Potency is reported as active: 23.1 µM.
In the case of `COC(=O)c1[nH]c2ccc(C)cc2c1NC(=O)CN1CCN(c2ccc(F)cc2)CC1`, the Potency is reported as active: 9.2 µM.
With `O=S(=O)(c1ccccc1Cl)N1CCCC1c1nc(-c2ccccc2Cl)no1` (stereo not given) the Potency was “inactive”.
With `FC(F)(F)c1cccc(OCCN2CCN(Cc3ccccc3)CC2)c1` the Potency was “inactive”.
With `O=C(CN1CCN(Cc2ccccc2Cl)CC1)N=Nc1c(O)[nH]c2ccccc12` the Potency was active: 20.6 µM.
In the case of `O=C(Nc1ccc(-c2nnc(-c3ccccc3)o2)cc1)C(F)(F)F`, the Potency is reported as inconclusive: 2.91 µM [activator, full curve].
In the case of `Cc1ccc2nc(C(F)(F)F)c(C#N)c(N)c2c1`, the Potency is reported as inconclusive: 20.6 µM [inhibitor, partial curve, poor fit].
In the case of `COc1ccccc1-c1noc(CCC(=O)Nc2cccc(C(F)(F)F)c2)n1`, the Potency is reported as inconclusive: 18.4 µM [inhibitor, partial curve].
With `CCOC(=O)c1[nH]c2c(c1C)C(=O)CC(c1ccco1)C2` (stereo not given) the Potency was “inactive”.
In the case of `O=C1OC(Nc2ncccn2)c2ccccc21` (stereo not given), the Potency is reported as “inactive”.
With `Cc1ccc(NC(=O)CSc2nnc(CN3CCOCC3)n2C)cc1C` the Potency was “inactive”.
For `FC(F)Oc1ccc(-c2csc(=Nc3cccnc3)n2CC2CCCO2)cc1` (stereo not given), the Potency was inconclusive: 16.4 µM [inhibitor, partial curve].
With `COc1ccc(N2CC(C(=O)Nc3ccccc3C(=O)NCc3ccco3)CC2=O)cc1` (stereo not given) the Potency was inconclusive: 16.4 µM [inhibitor, partial curve, poor fit].
For `COc1ccccc1C(=O)Nc1nnc(S(=O)(=O)N2CCCCC2)s1`, the Potency was inconclusive: 7.3 µM [activator, partial curve, poor fit].
For `COc1ccc(/C=N/NC(=O)Cc2cccs2)cc1`, the Potency was inconclusive: 3.26 µM [activator, partial curve].
With `COC(=O)C1=C(NC(C)=O)CCS1` the Potency was “inactive”.
With `CN1CCc2c(sc(NC(=O)C3CCCCC3)c2C(N)=O)C1` the Potency was inconclusive: 18.3 µM [activator, single point].
In the case of `Cc1nc2cc(NC(=O)Nc3cccc([N+](=O)[O-])c3)ccc2n1C`, the Potency is reported as inconclusive: 1 µM [activator, full curve].
In the case of `CC(=O)c1ccc(N2CCN(C(=O)C3CCN(C(=O)Nc4ccccc4)CC3)CC2)cc1`, the Potency is reported as “inactive”.
In the case of `CC(=O)c1sc(NC(=O)c2ccccc2F)nc1C`, the Potency is reported as inconclusive: 4.11 µM [activator, partial curve].
For `COC(=O)CCC(=O)OC1(C)C(=O)C2=CN(CCN3CCOCC3)C(c3ccc(OC)cc3)=CC2=C(Br)C1=O` (stereo not given), the Potency was “inactive”.
In the case of `COc1ccc(CCN2CCCC(CN(C)C(=O)c3ccoc3)C2)cc1` (stereo not given), the Potency is reported as inconclusive: 18.3 µM [activator, partial curve].
For `O=C1C=C(c2ccc(CO)cc2)C[C@@H](c2ccc3c(c2)OCO3)C1`, the Potency was inconclusive: 20.6 µM [inhibitor, single point].
With `Cc1n[nH]c(=S)n1/N=C/c1ccccc1OCc1ccc(Cl)cc1Cl` the Potency was “inactive”.
With `COc1ccc(NC(=O)c2cc3ccccc3[nH]2)cc1` the Potency was inconclusive: 2 µM [activator, full curve].
For `COc1ccccc1NC(=S)NNC(=O)c1ccc(O)cc1`, the Potency was inconclusive: 6.51 µM [activator, partial curve].
In the case of `CC1CCN(C(=O)CSc2nc3ccccc3c(=O)[nH]2)CC1`, the Potency is reported as inconclusive: 18.3 µM [activator, single point].
For `Cc1ccc(C(=O)Nc2nnc(SCC(=O)N3CCCc4ccccc43)s2)cc1`, the Potency was inconclusive: 0.731 µM [activator, full curve].
For `CC(C)c1ccc2[nH]c(O)c(N=NC(=O)c3ccc(CSc4nncn4C)cc3)c2c1`, the Potency was inconclusive: 18.4 µM [inhibitor, partial curve].
In the case of `COc1ccc(CN(Cc2cc3cccc(C)c3n3nnnc23)C(=O)N2CCOCC2)cc1`, the Potency is reported as “inactive”.
With `CCn1cc(C(=O)Nc2ncccc2O)c(=O)c2cc(F)c(N3CCN(C(=O)c4ccco4)CC3)cc21` the Potency was inconclusive: 4.61 µM [inhibitor, single point].
For `CC(C)(C)c1ccc(C(=O)NC(=S)NNC(=O)COc2ccccc2)cc1`, the Potency was inconclusive: 10.3 µM [activator, partial curve].
With `COc1ccc(/C=C/C2=Nc3ccccc3NC(C)(C)C2)cc1OC` the Potency was inconclusive: 20.6 µM [activator, single point].
In the case of `O=C(CCCCl)Nc1nc(-c2ccc3c(c2)OCCO3)cs1`, the Potency is reported as inconclusive: 9.2 µM [activator, partial curve].
In the case of `O=C(Cc1ccccc1)NN1C(=O)c2ccccc2C1=O`, the Potency is reported as inconclusive: 29.1 µM [activator, partial curve, poor fit].
For `COc1cc(NC(=O)CCCNC(=O)Cn2cnc3sc(C)c(C)c3c2=O)cc(OC)c1OC`, the Potency was inconclusive: 5.17 µM [inhibitor, partial curve, poor fit].
For `CCOCCCn1c(SCc2nc3ccccc3s2)nc2ccccc2c1=O`, the Potency was inconclusive: 29.1 µM [inhibitor, single point].
With `O=C(O)c1cc(Cl)ccc1-c1ccc(/C=C/c2cc(C(F)(F)F)[nH]c(=O)n2)o1` the Potency was “inactive”.
For `CCn1c(=O)c(C(=O)CN2CCCc3ccccc32)c(N)n(Cc2ccccc2)c1=O`, the Potency was inconclusive: 29.1 µM [inhibitor, single point].
For `O=C(Cc1ccc(F)cc1)Nc1nc(-c2ccc(F)cc2)cs1`, the Potency was “inactive”.
With `COc1cc(C(C#N)N2N=C(c3ccccc3)CC2c2ccccc2)ccc1O` (stereo not given) the Potency was inconclusive: 29.1 µM [activator, single point].
For `NS(=O)(=O)c1ccc(CNC(=O)CSc2nc3ccc(Cl)cc3[nH]2)cc1`, the Potency was “inactive”.
With `CCOC(=O)c1ccccc1NC(=O)c1cn(-c2ccc(OC)cc2)c(=O)c2ccccc12` the Potency was active: 6.51 µM.
In the case of `N/C(=N\OC(=O)c1ccc2c(c1)OCO2)c1ccncc1`, the Potency is reported as inconclusive: 10.3 µM [activator, partial curve].
With `Cc1c(N=Cc2nc3ccccc3[nH]2)c(=O)n(-c2ccccc2)n1C` the Potency was inconclusive: 28.2 µM [activator, single point].
For `CCCN(CCC)CCCNC(=S)Nc1ccc2nc(N3CCCC3)cc(C)c2c1`, the Potency was “inactive”.
For `Cn1nccc1C(=O)Oc1cccc(/C=N/NC(=O)c2ccccc2O)c1`, the Potency was inconclusive: 29.1 µM [activator, single point].
With `CC1SC(C)C(=O)N(CC(=O)NCc2ccc(F)cc2)C1=O` (stereo not given) the Potency was inconclusive: 23.1 µM [activator, partial curve, poor fit].
With `CCN(CC)S(=O)(=O)c1ccc(OC)c(NC(=O)/C=C/c2ccco2)c1` the Potency was active: 23.1 µM.
In the case of `NC(=O)C1CCN(c2nc(-c3cccc(Cl)c3)cs2)CC1`, the Potency is reported as inconclusive: 2.59 µM [activator, partial curve].
In the case of `COc1ccc(Nc2nc(C)c3ccccc3n2)cc1`, the Potency is reported as inconclusive: 6.51 µM [activator, single point].
In the case of `CC(C)(C)C(=O)OCc1cn(-c2ccc(Cl)cc2)nn1`, the Potency is reported as inconclusive: 29.1 µM [activator, single point].
For `Cc1ccc(C)c(N(CC(=O)NC2CCCC2)C(=O)c2oc(C(C)(C)C)cc2C)c1`, the Potency was “inactive”.
In the case of `COc1cccc(N2CCN(S(=O)(=O)c3cc4c(cc3Cl)NC(=O)CO4)CC2)c1`, the Potency is reported as “inactive”.
With `O=C(CCCOc1ccccc1)N1CCN(c2ccccn2)CC1` the Potency was inconclusive: 8.2 µM [activator, partial curve].
In the case of `COC(=O)c1sccc1S(=O)(=O)Nc1ccc(Cl)cc1`, the Potency is reported as “inactive”.
With `CCN(CC)S(=O)(=O)c1ccc(OC)c(NC(=O)CSc2cc(C)ccc2C)c1` the Potency was inconclusive: 10.3 µM [inhibitor, partial curve, poor fit].
In the case of `CC(C)CC(=O)NCCCCc1ccccc1`, the Potency is reported as inconclusive: 8.2 µM [activator, partial curve, poor fit].
In the case of `CC(=O)c1cccc(NC(=O)Nc2cccs2)c1`, the Potency is reported as “inactive”.
With `Cc1cccc(CSc2nnc(-c3ccccn3)n2N)c1` the Potency was inconclusive: 29.1 µM [activator, single point].
With `COc1ccc(N2C(=O)c3ccccc3NC23CCCC3)cc1` the Potency was inconclusive: 16.4 µM [activator, partial curve].
In the case of `CC1(C(=O)OCc2cc(=O)n3cc(Br)ccc3n2)CC1(Cl)Cl` (stereo not given), the Potency is reported as inconclusive: 14.6 µM [activator, partial curve].
In the case of `O=C1CCC2S/C(=C/Nc3ccc(C(F)(F)F)cc3)C(=O)N12` (stereo not given), the Potency is reported as inconclusive: 6.51 µM [inhibitor, partial curve, poor fit].
For `O=C(NCCN1CCN(c2ccccc2)CC1)c1cccn2c(=O)c3ccccc3nc12`, the Potency was inconclusive: 4.11 µM [inhibitor, partial curve, poor fit].
In the case of `CCOC(=O)N/N=C/c1c(C)c(C(=O)c2ccc(F)cc2)n2ccccc12`, the Potency is reported as inconclusive: 20.6 µM [inhibitor, single point].
With `CCc1ccc(C(=O)NNC(=O)[C@H](C)NC(=O)c2ccco2)cc1` the Potency was “inactive”.
With `Cc1cc(C)c2nc(C(F)(F)F)nc(NCCCN3CCCC3=O)c2c1` the Potency was inconclusive: 16.4 µM [inhibitor, single point].
